What all share (experiment): co-IP; HEK293 cells transiently co-transfected with tagged proteins, 48 h; solubilised in RIPA buffer (0.1% SDS, 1% Triton X100, 0.5% sodium deoxycholate, 150 mM NaCl), in some panels a modified RIPA without SDS or with rising SDS (diluted to 0.1% before IP); antibody to the tag overnight at 4 °C, protein A or G agarose, western blot
(In general: Immunoblotting shows a protein as a band on a membrane.)

Chains of the proteins cited; added tags and fusions are not shown.
UniProt Q13616: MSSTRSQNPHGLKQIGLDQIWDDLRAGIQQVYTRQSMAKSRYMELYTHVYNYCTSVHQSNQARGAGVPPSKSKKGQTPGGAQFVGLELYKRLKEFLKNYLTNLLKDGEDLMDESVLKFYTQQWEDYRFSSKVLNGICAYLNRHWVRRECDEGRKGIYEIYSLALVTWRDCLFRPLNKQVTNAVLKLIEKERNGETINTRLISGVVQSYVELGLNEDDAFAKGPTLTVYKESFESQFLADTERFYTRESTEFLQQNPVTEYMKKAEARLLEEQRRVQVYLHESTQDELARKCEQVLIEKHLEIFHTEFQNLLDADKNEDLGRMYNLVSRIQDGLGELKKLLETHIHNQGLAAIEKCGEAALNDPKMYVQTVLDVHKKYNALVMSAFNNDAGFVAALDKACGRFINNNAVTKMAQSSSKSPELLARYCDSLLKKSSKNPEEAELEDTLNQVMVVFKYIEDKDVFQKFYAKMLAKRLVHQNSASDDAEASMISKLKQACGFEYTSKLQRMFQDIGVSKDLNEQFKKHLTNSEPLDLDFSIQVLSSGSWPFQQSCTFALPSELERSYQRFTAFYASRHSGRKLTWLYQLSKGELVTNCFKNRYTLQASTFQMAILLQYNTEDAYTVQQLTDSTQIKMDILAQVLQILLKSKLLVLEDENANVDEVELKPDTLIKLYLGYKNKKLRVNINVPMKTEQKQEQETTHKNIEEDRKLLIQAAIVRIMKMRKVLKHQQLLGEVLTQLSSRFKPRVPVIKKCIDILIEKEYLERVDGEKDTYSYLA
UniProt Q01959: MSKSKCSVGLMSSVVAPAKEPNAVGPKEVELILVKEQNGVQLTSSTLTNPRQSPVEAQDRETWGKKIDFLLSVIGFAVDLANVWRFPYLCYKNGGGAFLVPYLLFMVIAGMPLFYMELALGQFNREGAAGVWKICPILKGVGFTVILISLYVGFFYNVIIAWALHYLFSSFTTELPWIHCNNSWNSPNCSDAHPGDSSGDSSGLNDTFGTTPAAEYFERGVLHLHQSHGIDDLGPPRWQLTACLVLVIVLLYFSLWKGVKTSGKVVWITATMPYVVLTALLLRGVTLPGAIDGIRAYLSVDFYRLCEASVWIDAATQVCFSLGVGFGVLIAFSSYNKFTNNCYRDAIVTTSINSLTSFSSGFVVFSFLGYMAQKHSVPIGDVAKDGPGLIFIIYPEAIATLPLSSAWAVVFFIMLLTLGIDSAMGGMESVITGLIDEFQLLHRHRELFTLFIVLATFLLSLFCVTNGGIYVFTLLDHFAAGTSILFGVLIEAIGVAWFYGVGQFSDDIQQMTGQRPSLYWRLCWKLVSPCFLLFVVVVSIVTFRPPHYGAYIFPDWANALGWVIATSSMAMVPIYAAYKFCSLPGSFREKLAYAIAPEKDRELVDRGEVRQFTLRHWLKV

One experiment deals with flag-Cullin1 (UniProt Q13616).
In a further experiment the target is T1, myc-FBXL2 (UniProt Q9UKC9).
T1 sequence: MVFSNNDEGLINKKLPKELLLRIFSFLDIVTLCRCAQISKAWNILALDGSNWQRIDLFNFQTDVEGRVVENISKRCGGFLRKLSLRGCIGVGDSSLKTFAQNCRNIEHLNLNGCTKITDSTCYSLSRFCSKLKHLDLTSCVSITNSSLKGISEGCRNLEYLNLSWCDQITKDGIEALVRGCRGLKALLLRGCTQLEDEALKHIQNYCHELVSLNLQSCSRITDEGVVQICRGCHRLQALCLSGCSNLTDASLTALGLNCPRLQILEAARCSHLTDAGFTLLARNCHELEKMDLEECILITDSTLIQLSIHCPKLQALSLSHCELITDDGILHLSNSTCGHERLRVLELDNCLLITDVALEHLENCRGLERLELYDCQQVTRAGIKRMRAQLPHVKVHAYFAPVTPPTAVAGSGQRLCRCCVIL

Another experiment has as its target HA-DAT (UniProt Q01959).

These are yes or no findings as the source states them, for the method shown. In cells and extracts the contact can be indirect. Some entries that bind do so weakly or less than the wild type. For some of these results: Sequences can lack the tags named with a protein.

Six molecules from publication PMC8629785 can be followed below.

Take HA-DAT (from UniProt Q01959 1-620): the binding result with flag-Cullin1 and with myc-FBXL2 was “binds” each time.

B1: myc-FBXO3 (protein, UniProt Q9UK99 1-471)
chain: MAAMETETAPLTLESLPTDPLLLILSFLDYRDLINCCYVSRRLSQLSSHDPLWRRHCKKYWLISEEEKTQKNQCWKSLFIDTYSDVGRYIDHYAAIKKAWDDLKKYLEPRCPRMVLSLKEGAREEDLDAVEAQIGCKLPDDYRCSYRIHNGQKLVVPGLLGSMALSNHYRSEDLLDVDTAAGGFQQRQGLKYCLPLTFCIHTGLSQYIAVEAAEGRNKNEVFYQCPDQMARNPAAIDMFIIGATFTDWFTSYVKNVVSGGFPIIRDQIFRYVHDPECVATTGDITVSVSTSFLPELSSVHPPHYFFTYRIRIEMSKDALPEKACQLDSRYWRITNAKGDVEEVQGPGVVGEFPIISPGRVYEYTSCTTFSTTSGYMEGYYTFHFLYFKDKIFNVAIPRFHMACPTFRVSIARLEMGPDEYEEMEEEEEEEEEEDEDDDSADMDESDEDDEEERRRRVFDVPIRRRRCSRLF
As for B1, the binding entry with HA-DAT is “binds”.

B2: myc-FBX18 (protein, UniProt Q96ME1 1-718)
chain: MASSGEDISNDDDDMHPAAAGMADGVHLLGFSDEILLHILSHVPSTDLILNVRRTCRKLAALCLDKSLIHTVLLQKDYQASEDKVRQLVKEIGREIQQLSMAGCYWLPGSTVEHVARCRSLVKVNLSGCHLTSLRLSKMLSALQHLRSLAIDVSPGFDASQLSSECKATLSRVRELKQTLFTPSYGVVPCCTSLEKLLLYFEILDRTREGAILSGQLMVGQSNVPHYQNLRVFYARLAPGYINQEVVRLYLAVLSDRTPQNLHAFLISVPGSFAESGATKNLLDSMARNVVLDALQLPKSWLNGSSLLQHMKFNNPFYFSFSRCTLSGGHLIQQVINGGKDLRSLASLNLSGCVHCLSPDSLLRKAEDDIDSSILETLVASCCNLRHLNLSAAHHHSSEGLGRHLCQLLARLRHLRSLSLPVCSVADSAPRADRAPAQPAMHAVPRGFGKKVRVGVQSCPSPFSGQACPQPSSVFWSLLKNLPFLEHLELIGSNFSSAMPRNEPAIRNSLPPCSRAQSVGDSEVAAIGQLAFLRHLTLAQLPSVLTGSGLVNIGLQCQQLRSLSLANLGMMGKVVYMPALSDMLKHCKRLRDLRLEQPYFSANAQFFQALSQCPSLQRLCLVSRSGTLQPDAVLAFMARCLQVVMCHLFTGESLATCKSLQQSLLRSFQAERPALNVVIFPLLHEGLTDVIRDVPLVHLDEITLFKSRVAEEPPNLWW
As to B2, in the experiment with HA-DAT, the binding result is reported as “binds”.

B3: myc-PGRMC2 (protein, UniProt O15173 1-223)
chain: MAAGDGDVKLGTLGSGSESSNDGGSESPGDAGAAAEGGGWAAAALALLTGGGEMLLNVALVALVLLGAYRLWVRWGRRGLGAGAGAGEESPATSLPRMKKRDFSLEQLRQYDGSRNPRILLAVNGKVFDVTKGSKFYGPAGPYGIFAGRDASRGLATFCLDKDALRDEYDDLSDLNAVQMESVREWEMQFKEKYDYVGRLLKPGEEPSEYTDEEDTKDHNKQD
With B3, the binding result with HA-DAT is recorded as “binds”.

B4: GFP-M6b (protein, UniProt P35803 1-328)
chain: MKPAMETAAEENTEQSQERKVNSRAEMEIGRYHWMYPGSKNHQYRPVPNLGDRAGPLSSPGCFECCIKCLGGVPYASLVATILCFSGVALFCGCGHVALAGTVAILEQHFSTNTSDHALLSEVIQLMQYVIYGIASFFFLYGIILLAEGFYTTSAVKELHGEFKTTACGRCISGMFVFLTYVLGVAWLGVFGFSAVPVFMFYNIWSTCEVIKSPQSNGTSGVEQICVDVRQYGIIPWNAFPGKICGSALENICNTNEFYMSYHLFIVACAGAGATVIALIHFLMILSSNWAYLKDASKMQAYQDIKAKEEQELQDIQSRSKEQLNSYT
With B4, the binding result with HA-DAT is listed as “binds”.

B5: myc-FBXL2 (protein, UniProt Q9UKC9 1-423)
chain: T1 sequence
On to B5, for which the binding result with HA-DAT is given as “binds”.
